Here are results for 66 sequences from PubChem BioAssay AID1347423 (Functional Genomics Laboratory (NCATS/FGL), 2020).

In all, about 52,000 sequences went through this assay and about 210 (0.4%) were called active.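 Rule for the calls: active = gene whose silencing raises cell survival under the drug, median off-target-corrected z-score across its silencing RNAs 2 or more; inactive = the rest.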 Some of the results follow.

A short description of this assay: Resistance to Poly (ADP-Ribose) Polymerase inhibitor: Gene Identification via Genome-wide siRNA Screen. To be noted: mouse BRCA2 R2336H ES cells, olaparib, CellTiter-Glo viability; active compounds read high. Summed up: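 Mouse BRCA2 R2336H ES cells were reverse-transfected with siRNA (20 nM final), treated at 48 h with 500 nM olaparib, and read by CellTiter-Glo after 72 h. Scores: MAD-based z per siRNA, median per gene, seed off-target correction.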
(In general: Cellular ATP, detected with luciferase, serves as a proxy for viable cell number.)
Consider “GGAGGAAAUGAAAACCUUUTT against 2610507L03Rik”, for which the z-score was inactive: 0.595.

As for GGAGUUUGAUCAGAUCCUATT against Asf1b, the z-score is inactive: -0.3.

As to GGAAGCAUGCGAGAUCUAUTT against Napa, the z-score was inactive: 0.336.

Turning to “GGAAGAAAAGACUUAUCGUTT against 1200003C05Rik”, the z-score was inactive: 0.233.

As to GGAAGCAGAUCAAAGACAUTT against Efhd2, the z-score was inactive: 0.132.

As for “GGUGUUGAACGAGUGGAUCTT against 2410016F19Rik”, the z-score is inactive: -0.0446.

GCUAUAUCCACCUUAUGUCTT against Pigq: the z-score was inactive: -0.977.

For GGAUCCCAGGGAUCGAAUGTT against Osbpl9, the z-score was inactive: -0.566.

Take “CCAUUCCUUAAAAGAGCAUTT against 1110058A15Rik”: the z-score was inactive: 1.71.

For GGGUGAUUUUUGUAAGAUATT against Mpp2, the z-score is inactive: 0.798.

As to CCUCUUACUGCUCUAUGGATT against Bzrpl1, the z-score is inactive: 0.59.

For CGGACUAUAUAGAGAGGGATT against Purg, the z-score was inactive: -1.1.

For the sequence CGUACAAGACAGGUCGGUCTT against MGC103250, the z-score is inactive: 0.067.

For the sequence GGAGUCCACCCUUCAUCUGTT against Rps27a, the z-score was inactive: -2.62.

Consider GGACAGGCAGCUAACACUATT against Foxk1, for which the z-score is inactive: -1.61.

Consider “CCAGGAACACUAAUAACACTT against 2310005E10Rik”, for which the z-score was inactive: -0.0607.

With CCAGUAUGAAAGCUUAAAGTT against Ipo13, the z-score was inactive: 0.558.

As to GCACUCUUUCCAAAAUAGUTT against Klf12, the z-score is inactive: 0.519.

Consider GGCUCGGGUCUUUAACGAATT against Copg, for which the z-score was inactive: -0.69.

In the case of GGGAAAGUAAUUGAUAAACTT against Mtrr, the z-score was inactive: 0.321.

With CCUGAUCUAAUCCUAAAUGTT against Pgr, the z-score was inactive: 0.53.

As for GGGACAACCUGGAUGACAUTT against Coq6, the z-score was inactive: -0.492.

Turning to GCAGGUGAGAAAGUAUAAGTT against Mro, the z-score is inactive: -0.0906.

Turning to GGUUGCAUUUCUCAAGUAUTT against Olfr19, the z-score is inactive: 0.261.

For “GGACAUGAAGCAAGACCAATT against A230050P20Rik”, the z-score is inactive: 2.05.

In the case of “GCUGGAUGCAAAUGAUCUUTT against D17H6S56E-5”, the z-score is inactive: -0.23.

For “GGAUGAGAAUUUUGAGGCCTT against 1700028O09Rik”, the z-score is inactive: 1.72.

Consider GGAGACAAAGAAGAGAAAGTT against Ddx24, for which the z-score is inactive: 1.68.

Consider “GGUUGUUUAGCCAGUGCACTT against 6330409N04Rik”, for which the z-score is inactive: 0.143.

GCACUUAACAGAGAUACAATT against Cldn12: the z-score is inactive: -1.11.

Turning to GGAUCAAAAGGUAAAGAGATT against Rbbp5, the z-score was inactive: 0.0347.

GCUGAAGCAAGGUAGCGAUTT against Gbp5: the z-score was inactive: 0.868.

Turning to “GCACUCUUCUUCUCUAGCATT against E330017N17”, the z-score is inactive: -0.188.

Turning to “GGCCGUUUGUGGUCUACUGTT against 3300001M20Rik”, the z-score was inactive: -1.59.

As for GGGAAGUCAUUCACAUAUUTT against Rab39b, the z-score is inactive: -0.241.

As to “GAAAAGAGCUGUAAGAAUGTT against 1700001G17Rik”, the z-score was inactive: -0.0616.

GGAGAUCUGAAUGAAAAUUTT against Suhw2: the z-score was inactive: -0.288.

For the sequence GGAUGUCAAGCAAAUUUUUTT against Slc25a13, the z-score is inactive: 0.887.

For the sequence CCUUCCAACUCUUCUCCUCTT against H2-Tw3, the z-score was inactive: 0.495.

On to GCAGGAGGAUUAGUAAAUUTT against Ier2, for which the z-score was inactive: -1.21.

Take GGAAGUUAGCAUUUCUUCCTT against Xpnpep2: the z-score was inactive: 0.425.

Consider GGAUGUAAUGCGAAGUUUUTT against Vps52, for which the z-score is inactive: 0.186.

As for GGAAAUAUGUAUCAGCUACTT against Smyd5, the z-score is inactive: -1.14.

In the case of CCACUGAUGUGAGAUAUAATT against Zp2, the z-score was inactive: -1.61.

On to CGGUGUCCAACCUUACACUTT against Slc8a2, for which the z-score was inactive: 0.902.

Turning to GGAGAGCAUGUGACCAAAATT against Safb2, the z-score is inactive: -2.01.

Regarding CGGGAAACGUGAAUUUUUUTT against Mtdh, the z-score was inactive: 0.437.

For GGGUUAGUCACCUCAUUUUTT against Abhd5, the z-score is inactive: -0.345.

For GCUGGGAUAUGAAAUCUAUTT against Gprc6a, the z-score is inactive: -0.148.

As to GUAGUUGUUCUGAGAAAUCTT against Krtap16-1, the z-score was inactive: 2.49.

With GGAACAGUGACUCUUCGGGTT against Sorbs1, the z-score is inactive: -0.449.

In the case of GGAGCUAAGUGAUUUUAGATT against Mtf1, the z-score was inactive: 0.763.

On to GGCUGUUCAUUUAGAAGAATT against Rps27l, for which the z-score was inactive: -1.79.

Regarding GGACAAUUCAGAGUGAUAGTT against Mog, the z-score is inactive: -0.307.

For the sequence GCCUUAUGUGUUACAUUAUTT against Prkar1a, the z-score is inactive: -1.18.

With “GCUCCUUGGGCGAUUUCAGTT against 2010009L17Rik”, the z-score was inactive: -1.48.

With GGCUAUGGACAAUAUGACUTT against Fdx1, the z-score is inactive: 0.737.

CCUACCACAACAUGUAUCCTT against S100a11: the z-score is inactive: -0.532.

GGAUUUCUGUGGAGAUGGGTT against Hcr: the z-score is inactive: 0.137.

Turning to “CCAGGAUUCCGACUGAAUCTT against 1810007P19Rik”, the z-score was inactive: 0.802.

Consider GCUAACUAUCCCUCCACUGTT against Retnla, for which the z-score was inactive: -0.291.

With “GGGCUUAAGGCUUAAGACATT against 4933421H10Rik”, the z-score was inactive: -0.651.

Take CCUACCUAUUUAUCAAAGATT against Tmem23: the z-score was inactive: 0.362.

In the case of GGAUCUAUGAUCUCUCAGUTT against Gstt3, the z-score was inactive: 0.00083.

In the case of GGUCUCAGGUUGUUUUGAUTT against Rasl10b, the z-score was inactive: -1.6.

In the case of “GCAGAUAGCUGCUACCCAUTT against 2410015B03Rik”, the z-score was inactive: -0.147.
